Experimental data as given in article doi:10.1101/2025.09.22.677689.
No constants are given. Whether binding was seen depends on the method and setting. A result given as binding can be weak or reduced; the word gives no strength. For some assays here: Sequences can lack the tags named with a protein. For some assays here: Binding seen in cells or lysates may run through a third protein.

By UniProt entry, the sequences of proteins in these tests, tags left out. Where a name states a change or a piece, a line headed by the entry shows the natural chain unless it says otherwise.
UniProt P23258: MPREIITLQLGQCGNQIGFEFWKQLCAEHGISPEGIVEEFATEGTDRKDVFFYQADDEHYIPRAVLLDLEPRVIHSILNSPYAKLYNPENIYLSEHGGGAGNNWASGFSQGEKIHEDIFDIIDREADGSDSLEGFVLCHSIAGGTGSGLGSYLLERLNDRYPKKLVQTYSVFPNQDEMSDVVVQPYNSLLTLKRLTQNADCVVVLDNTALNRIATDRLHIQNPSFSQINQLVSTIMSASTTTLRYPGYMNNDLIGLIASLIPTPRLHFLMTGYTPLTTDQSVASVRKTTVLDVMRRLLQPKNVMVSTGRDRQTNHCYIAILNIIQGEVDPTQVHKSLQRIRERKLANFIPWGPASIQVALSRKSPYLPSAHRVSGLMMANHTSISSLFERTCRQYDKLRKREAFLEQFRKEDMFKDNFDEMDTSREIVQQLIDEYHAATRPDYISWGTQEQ

B1: CFDP1 center fragment (aa 99-199), HIS tagged (domain or fragment, UniProt O88271 99-199)
chain: ENARKKKEDELWASFLNDVGPKSKAAPGSQTKVAEETEEISSNKPLVKADELDKPRESEKVKITKVFDFAGEEVRVTKEVDAASKEAKSFLKQTEREKPQA

Key:
[1] = target: CFDP1 (endogenous, mitotic HeLa cells) (human (endogenous in HeLa)) (UniProt Q9UEE9); assay: co-IP; anti-CFDP1 antibody (mouse IgG as control), cytosolic and chromatin extracts of mitotic HeLa cells, overnight at 4°C, Dynabeads Protein G, wash with 250 mM NaCl, 0.1% NP40; immunoblot
[2] = target: Taxol stabilized microtubules (polymerized tubulin); assay: co-sedimentation; test proteins (5 µM) with Taxol stabilized MTs in GTB, 30 min at room temperature, 100,000 g for 40 min at 25°C through a 60% glycerol cushion; supernatant and pellet by SDS-PAGE (Coomassie or western blot); CFDP1 and TPX2 also added together at varied concentrations; both …

Row | binding [1] | binding [2] | Molecule
1 | binds | – | γ-tubulin (endogenous, mitotic HeLa cells) (from UniProt P23258)
2 | – | binds | B1
